Results are given in words; binding and its absence hold for the method and conditions named. In cells and extracts the contact can be indirect. Some entries that bind do so weakly or less than the wild type. For some of these results: Sequences can lack the tags named with a protein.
Experiments:
TMED7-FLAG [1] = target: T1, TMED7-FLAG (UniProt Q9Y3B3); assay: co-IP
T1 sequence: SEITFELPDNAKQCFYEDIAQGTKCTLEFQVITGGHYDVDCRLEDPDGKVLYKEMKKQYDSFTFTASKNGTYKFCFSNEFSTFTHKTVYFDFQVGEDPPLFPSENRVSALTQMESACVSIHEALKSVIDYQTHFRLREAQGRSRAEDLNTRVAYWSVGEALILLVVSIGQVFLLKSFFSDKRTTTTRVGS

By UniProt entry, the sequences of proteins in these tests, tags left out. Where a name states a change or a piece, a line headed by the entry shows the natural chain unless it says otherwise. Residues count along the entry.
UniProt O00206, residues 24-839: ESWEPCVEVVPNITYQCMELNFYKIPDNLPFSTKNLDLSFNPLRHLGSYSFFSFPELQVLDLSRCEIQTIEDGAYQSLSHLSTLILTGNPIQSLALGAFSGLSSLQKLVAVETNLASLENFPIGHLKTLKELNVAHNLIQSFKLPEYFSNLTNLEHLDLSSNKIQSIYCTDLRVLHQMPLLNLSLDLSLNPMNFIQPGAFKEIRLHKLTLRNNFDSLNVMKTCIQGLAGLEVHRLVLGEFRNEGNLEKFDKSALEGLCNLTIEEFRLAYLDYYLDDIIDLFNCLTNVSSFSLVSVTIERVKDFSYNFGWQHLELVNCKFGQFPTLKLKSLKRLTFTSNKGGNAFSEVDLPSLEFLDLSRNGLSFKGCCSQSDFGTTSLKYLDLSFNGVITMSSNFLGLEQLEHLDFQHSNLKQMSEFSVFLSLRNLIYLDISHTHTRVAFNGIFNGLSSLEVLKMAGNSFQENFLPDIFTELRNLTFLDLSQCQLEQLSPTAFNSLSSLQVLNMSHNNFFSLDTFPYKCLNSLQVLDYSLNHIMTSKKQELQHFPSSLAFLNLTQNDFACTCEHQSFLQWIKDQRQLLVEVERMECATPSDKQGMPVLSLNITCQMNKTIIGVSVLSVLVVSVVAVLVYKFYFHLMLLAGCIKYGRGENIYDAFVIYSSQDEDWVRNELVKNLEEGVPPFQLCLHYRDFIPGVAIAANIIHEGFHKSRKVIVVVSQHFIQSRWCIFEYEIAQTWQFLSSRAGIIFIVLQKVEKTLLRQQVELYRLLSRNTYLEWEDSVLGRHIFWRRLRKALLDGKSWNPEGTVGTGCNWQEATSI
UniProt O15455, residues 24-904: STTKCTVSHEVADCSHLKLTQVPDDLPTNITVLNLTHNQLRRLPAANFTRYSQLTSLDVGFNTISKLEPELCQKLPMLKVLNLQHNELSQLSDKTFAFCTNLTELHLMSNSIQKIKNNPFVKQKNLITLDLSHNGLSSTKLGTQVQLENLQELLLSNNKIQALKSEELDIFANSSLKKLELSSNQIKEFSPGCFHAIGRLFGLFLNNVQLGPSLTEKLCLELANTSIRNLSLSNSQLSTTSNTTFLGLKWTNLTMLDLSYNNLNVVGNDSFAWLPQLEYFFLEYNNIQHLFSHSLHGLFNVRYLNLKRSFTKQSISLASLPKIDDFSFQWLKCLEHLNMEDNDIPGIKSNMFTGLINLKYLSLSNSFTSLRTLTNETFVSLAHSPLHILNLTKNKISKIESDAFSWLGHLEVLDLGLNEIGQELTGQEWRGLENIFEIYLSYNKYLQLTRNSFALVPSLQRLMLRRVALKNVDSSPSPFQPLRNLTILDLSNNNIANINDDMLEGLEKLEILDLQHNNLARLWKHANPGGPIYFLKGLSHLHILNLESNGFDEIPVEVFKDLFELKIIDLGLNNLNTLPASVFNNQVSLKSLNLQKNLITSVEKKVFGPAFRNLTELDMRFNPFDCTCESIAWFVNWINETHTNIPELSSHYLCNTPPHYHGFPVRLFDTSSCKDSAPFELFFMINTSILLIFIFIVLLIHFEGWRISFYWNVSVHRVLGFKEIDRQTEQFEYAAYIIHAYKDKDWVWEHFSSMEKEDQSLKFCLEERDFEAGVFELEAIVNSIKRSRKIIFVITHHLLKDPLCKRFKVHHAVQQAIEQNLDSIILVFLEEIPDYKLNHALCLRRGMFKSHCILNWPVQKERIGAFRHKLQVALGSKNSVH
UniProt O60603: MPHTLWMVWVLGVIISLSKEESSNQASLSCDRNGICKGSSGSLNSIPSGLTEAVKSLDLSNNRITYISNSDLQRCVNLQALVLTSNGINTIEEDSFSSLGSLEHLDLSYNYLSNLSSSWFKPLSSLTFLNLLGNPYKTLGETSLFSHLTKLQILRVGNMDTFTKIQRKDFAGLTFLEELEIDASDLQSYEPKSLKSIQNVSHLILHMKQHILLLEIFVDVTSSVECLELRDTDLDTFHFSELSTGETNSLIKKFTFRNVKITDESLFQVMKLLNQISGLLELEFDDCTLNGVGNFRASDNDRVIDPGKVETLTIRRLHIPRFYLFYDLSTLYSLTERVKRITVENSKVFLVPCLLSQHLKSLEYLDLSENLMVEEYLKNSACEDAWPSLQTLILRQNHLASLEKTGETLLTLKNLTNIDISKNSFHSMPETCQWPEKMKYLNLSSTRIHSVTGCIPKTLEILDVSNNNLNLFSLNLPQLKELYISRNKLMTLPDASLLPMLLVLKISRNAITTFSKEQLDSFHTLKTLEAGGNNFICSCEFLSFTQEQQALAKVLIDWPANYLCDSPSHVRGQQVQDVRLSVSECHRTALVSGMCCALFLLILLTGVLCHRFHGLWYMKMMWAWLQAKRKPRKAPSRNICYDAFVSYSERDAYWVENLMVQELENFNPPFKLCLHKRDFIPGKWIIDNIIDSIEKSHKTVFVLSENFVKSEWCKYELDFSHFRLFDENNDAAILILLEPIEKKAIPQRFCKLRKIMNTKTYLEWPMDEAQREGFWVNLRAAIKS
UniProt Q15363, residues 21-201: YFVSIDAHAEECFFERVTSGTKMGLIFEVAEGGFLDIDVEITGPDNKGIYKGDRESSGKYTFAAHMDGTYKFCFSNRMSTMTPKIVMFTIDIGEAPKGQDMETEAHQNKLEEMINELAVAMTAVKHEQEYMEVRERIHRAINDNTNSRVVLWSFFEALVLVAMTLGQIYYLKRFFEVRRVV
UniProt O60602, residues 21-858: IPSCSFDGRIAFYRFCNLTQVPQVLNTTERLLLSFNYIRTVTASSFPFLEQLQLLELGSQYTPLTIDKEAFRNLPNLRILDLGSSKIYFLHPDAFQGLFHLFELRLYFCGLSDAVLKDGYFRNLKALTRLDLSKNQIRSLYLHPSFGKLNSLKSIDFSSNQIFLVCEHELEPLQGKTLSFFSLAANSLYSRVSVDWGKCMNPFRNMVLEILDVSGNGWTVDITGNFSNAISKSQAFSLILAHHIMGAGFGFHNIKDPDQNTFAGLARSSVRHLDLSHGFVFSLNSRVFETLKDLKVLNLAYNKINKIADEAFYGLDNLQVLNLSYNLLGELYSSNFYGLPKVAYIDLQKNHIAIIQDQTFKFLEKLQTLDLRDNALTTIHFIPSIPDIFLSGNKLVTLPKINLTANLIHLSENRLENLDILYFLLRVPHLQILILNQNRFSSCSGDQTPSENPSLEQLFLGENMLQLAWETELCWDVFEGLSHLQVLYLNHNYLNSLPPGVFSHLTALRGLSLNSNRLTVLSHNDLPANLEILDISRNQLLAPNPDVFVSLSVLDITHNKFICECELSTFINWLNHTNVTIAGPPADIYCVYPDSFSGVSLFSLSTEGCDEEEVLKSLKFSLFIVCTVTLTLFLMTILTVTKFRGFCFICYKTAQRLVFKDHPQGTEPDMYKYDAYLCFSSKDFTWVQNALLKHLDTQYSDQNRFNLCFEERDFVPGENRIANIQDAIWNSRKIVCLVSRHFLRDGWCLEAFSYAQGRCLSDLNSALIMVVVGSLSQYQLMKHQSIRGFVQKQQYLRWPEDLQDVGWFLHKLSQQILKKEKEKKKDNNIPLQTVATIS

TMED7-FLAG [2] = target: T1, TMED7-FLAG; assay: proximity ligation
TLR4 [3] = target: TLR4 (UniProt O00206); assay: co-IP
TLR3 (human) [4] = target: TLR3 (human) (UniProt O15455); assay: co-IP
TLR2 (human) [5] = target: TLR2 (human) (UniProt O60603); assay: co-IP
TLR4 [6] = target: TLR4 (UniProt O00206); assay: proximity ligation
TLR3 (human) [7] = target: TLR3 (human) (UniProt O15455); assay: proximity ligation
TLR2 (human) [8] = target: TLR2 (human) (UniProt O60603); assay: proximity ligation

Row | Substance | binding (TMED7-FLAG [1]) | binding (TMED7-FLAG [2]) | also measured
1 | TLR2 (from UniProt O60603 21-784) (receptor) | binds | binds | –
2 | TMED2-HA (from UniProt Q15363 21-201) | – | – | binding (TLR4 [3]): binds; binding (TLR3 (human) [4]): binds; binding (TLR2 (human) [5]): binds; binding (TLR4 [6]): binds; binding (TLR3 (human) [7]): binds; binding (TLR2 (human) [8]): binds

Continued, in another order:

Row | binding (TMED7-FLAG [1]) | binding (TMED7-FLAG [2]) | Substance | also measured
3 | no binding | no binding | TLR3 (from UniProt O15455 24-904) (receptor) | –
4 | binds | binds | TLR4 (from UniProt O00206 24-839) (receptor) | –
5 | – | binds | TLR5 (from UniProt O60602 21-858) (receptor) | –
